# In PubChem BioAssay AID624256 (NMMLSC, 2012):
# This is one part of the list.
# Assay: HoxA9-arrested leukemia cell differentiation promoters – flow cytometry, MLPCN library, primary screen (AID 624256);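 also: cells exposed to compound for four days before flow analysis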
# Details: ER-HoxA9 myeloid progenitors, lysozyme-GFP differentiation, measured here: differentiation confirmed by MAC1 staining, at 10 µM, stronger effect = higher value
row,SMILES,GFP+ MAC1+ double positive
1,O=[N+]([O-])c1cc([N+](=O)[O-])c(-n2nnc3ccccc32)c([N+](=O)[O-])c1,0.2%
2,CCOP(=O)(NC(=NC(C)c1ccccc1)NC(C)c1ccccc1)OCC (stereo not drawn),0.7%
3,Nc1ccc(CCCCOc2ccccc2)cc1.O=[N+]([O-])c1cc([N+](=O)[O-])c(O)c([N+](=O)[O-])c1,1.6%
4,O=P1(Nc2ccccn2)COc2ccccc2OC1,1.7%
5,CCC1=CC2Cc3nc4ccc(Cl)cc4c(N)c3C(C1)C2 (stereo not drawn),0.5%
6,O=C(O)C(O)c1ccc(N(CCCl)CCCl)cc1.c1ccncc1 (stereo not drawn),1.5%
7,CCOP(=O)(Nc1ccc(C)cn1)OCC,0.3%
8,CN(CCCl)Cc1cc(Cl)c(NC2=NCCN2)c(Cl)c1,4.4%
9,CC(C)(C)C(=O)NC(Sc1ncccn1)C(Cl)(Cl)Cl (stereo not drawn),0.2%
10,O=P1(N(CCCl)CCCl)NCCC(C(F)(F)F)O1 (stereo not drawn),1.1%
11,Clc1n[nH]nc1-c1nn[nH][15n]1,0.9%
12,CN(Cc1cccnc1)C(=O)COc1ccc(Cl)c(Cl)c1.O=[N+]([O-])c1cc([N+](=O)[O-])c(O)c([N+](=O)[O-])c1,0.6%
13,O=[N+]([O-])c1cc([N+](=O)[O-])c(-c2cnn(-c3ccccc3)c2)c([N+](=O)[O-])c1,0.8%
14,COc1ccccc1CNC(=O)COC(=O)C(O)(c1ccccc1)c1ccccc1,0.2%
15,Cc1ccc(S(=O)(=O)N(CCCN)CCCc2c(C)nc(N)[nH]c2=O)cc1.O=[N+]([O-])c1cc([N+](=O)[O-])c(O)c([N+](=O)[O-])c1,0.5%
16,CC(C)/C=N\N=C(\N)N[N+](=O)[O-],0.2%
17,CN(C(=O)Cc1ccc(Cl)c(Cl)c1)[C@@H]1CCCC[C@H]1N1CCCC1,4.1%
18,CC1(CBr)Cn2c(nc3ccccc3c2=O)S1 (stereo not drawn),1%
19,Cc1nc2ccc3ccccc3c2s1.O=[N+]([O-])c1cc([N+](=O)[O-])c(O)c([N+](=O)[O-])c1,0.3%
20,CC1CCC(C(C)C)C(OP(=O)(Nc2ccccn2)c2ccccc2)C1 (stereo not drawn),0.1%
21,Cc1ccc(C(=O)OC2CN3CCC2CC3)cc1 (stereo not drawn),0.5%
22,Cc1nn(-c2ccccc2)c2c1P(=O)(N1CCOCC1)N(C)C(c1ccccc1)=N2 (stereo not drawn),0.8%
23,COc1cc(C2NCCC3(OCCO3)C2(C)C)cc(OC)c1OC.O=[N+]([O-])c1cc([N+](=O)[O-])c(O)c([N+](=O)[O-])c1 (stereo not drawn),0.7%
24,CCOC(=O)C(CC)C1=NC(C)(C)Cc2ccccc21.O=[N+]([O-])c1cc([N+](=O)[O-])c(O)c([N+](=O)[O-])c1 (stereo not drawn),0.2%
25,CN(C)C1(CNC(=O)c2ccc(S(C)(=O)=O)cc2)CCCCC1,0.6%
26,CC1=C2N=C(C=C3N=C(C(C)=C4[N-][C@@](C)([C@@H]5N=C1[C@](C)(CCC(=O)NC[C@@H](C)OP(=O)([O-])O[C@H]1[C@@H](O)[C@@H](n6cnc7cc(C)c(C)cc76)O[C@@H]1CO)[C@H]5CC(N)=O)[C@@](C)(CC(N)=O)[C@@H]4CCC(N)=O)[C@@](C)(CC(N)=O)[C@@H]3CCC(N)=O)C(C)(C)[C@@H]2CCC(N)=O.[C-]#N.[Co+3],2%

row,SMILES,GFP+ MAC1+ double positive
1,O=[N+]([O-])c1cc([N+](=O)[O-])c(Nc2nnnn2CCO)c([N+](=O)[O-])c1,2.1%
2,CCCC1OP(=O)(Nc2ccccc2)OCC1CC (stereo not drawn),0.5%
3,O=C(/C=C/c1ccccc1)OC1CN2CCC1CC2 (stereo not drawn),0.8%
4,COc1ccccc1OP(C)(=O)Nc1c(C)cccc1C (stereo not drawn),0.9%
5,CN1CCCCC1COC(=O)C1(O)c2ccccc2CCc2ccccc21 (stereo not drawn),0.4%
6,O=P1(Nc2ncccn2)COc2ccccc2OC1,0.5%
7,CCCOc1ccc(NP(C)(=O)Oc2ccc(Cl)cc2)cc1 (stereo not drawn),0.3%
8,Nc1cccc([As](=O)(O)c2ccccc2)c1,0.3%
9,CP(=O)(Nc1ccc(SC(F)(F)F)cc1)Oc1ccccc1 (stereo not drawn),0.9%
10,COc1ccc(-c2ccccn2)cc1.O=[N+]([O-])c1cc([N+](=O)[O-])c(O)c([N+](=O)[O-])c1,0.9%
11,Cc1ccc(OCC(=O)OC2CN3CCC2CC3)cc1 (stereo not drawn),0.7%
12,O=[As](O)(c1cccs1)c1cccs1,0.8%
13,O=P1(Nc2ccc(Br)cn2)COc2ccccc2OC1,0.3%
14,NS(=O)(=O)c1cccc(NC(=O)COC(=O)C(O)(c2ccccc2)c2ccccc2)c1,1.1%
15,O=P(Nc1nccs1)(Oc1ccccc1)Oc1ccccc1,0.4%
16,O=P(Nc1nccs1)(c1ccccc1)c1nc2ccccc2s1 (stereo not drawn),1%
17,CCOP1(=S)c2c(C)nn(CCC#N)c2N=C(c2ccccc2F)N1C (stereo not drawn),7.2%
18,O=C(O)c1cccc(Nc2c([N+](=O)[O-])cc([N+](=O)[O-])cc2[N+](=O)[O-])c1,0.7%
19,CS(=O)(=O)c1cc([N+](=O)[O-])c2no[n+]([O-])c2c1,0.2%
20,Nc1ccccc1[As](=O)(O)c1ccccc1,0.6%
21,O=C(O)COc1ccc([As](=O)(O)O)cc1[N+](=O)[O-],0.9%
22,NC(=O)Nc1ccc([As](=O)(O)O)cc1,3%
23,CN(C(=O)Cc1ccccc1)[C@@H]1CC[C@]2(CCCO2)C[C@H]1N1CCCC1,2.5%
24,CCOP1(=S)c2c(C)nn(CCC#N)c2N=C(c2ccc(F)cc2)N1C (stereo not drawn),1.5%
25,N#CCCN(C(=O)COC(=O)C(O)(c1ccccc1)c1ccccc1)c1ccc(F)cc1,1.2%
26,CC1=NCCc2c1[nH]c1ccccc21.O=[N+]([O-])c1cc([N+](=O)[O-])c(O)c([N+](=O)[O-])c1,0.6%

row,SMILES,GFP+ MAC1+ double positive
1,CN(C(=O)Cc1ccc(Cl)c(Cl)c1)[C@H]1CC[C@@]2(CCCO2)C[C@@H]1N1CCCC1,4.3%
2,O=[N+]([O-])c1ccc2c(c1)nnn2O,6.4%
3,O=C(OC1CN2CCC1CC2)c1ccc(Cl)cc1 (stereo not drawn),0.5%
4,CS(=O)(=O)c1ccc(Cl)c(NC(=O)COC(=O)C(O)(c2ccccc2)c2ccccc2)c1,1.3%
5,O=[As](O)(O)c1cccnc1,0.3%
6,COc1cc(C(=O)NCC2(N3CCOCC3)CCCCC2)cc(Cl)c1OC(C)C,0.4%
7,Cc1cc(C)cc(OP(C)(=O)Nc2ccc(C)cc2C)c1 (stereo not drawn),7.4%
8,Cc1cccc(OCC(=O)OC2CN3CCC2CC3)c1 (stereo not drawn),0.5%
9,O=[As](O)(c1cccc(O)c1)c1cccc(O)c1,0.3%
10,CCOC(=O)c1ccc(NP(C)(=O)Oc2cc(C)cc(C)c2)cc1 (stereo not drawn),0.6%
11,Cc1ccc(NCCc2c([N+](=O)[O-])cc([N+](=O)[O-])cc2[N+](=O)[O-])cc1,0.7%
12,Nc1cccc2c([As](=O)(O)O)cccc12,1.6%
13,Cc1cc(C)cc(OP(C)(=O)Nc2ccccn2)c1 (stereo not drawn),1%
14,CP(=O)(Nc1cccc(Br)c1)Oc1ccccc1 (stereo not drawn),0.1%
15,Cc1ccc(C)c(NP(C)(=O)Oc2ccccc2)c1 (stereo not drawn),2.5%
16,CCCOP(=S)(Nc1nc(N)cc(=O)[nH]1)OCCC,0.5%
17,CCOP(=O)(Nc1cccc2ccccc12)OCC,0.6%
18,Cc1c2c(nc3ccccc13)SC(C(Cl)Cl)C2 (stereo not drawn),0.3%
19,Cc1cc(=O)[nH]c(N[N+](=O)[O-])n1,0.7%
20,CCN(CC)CCCOC(=O)C(O)(c1ccccc1)c1ccccc1,1%
21,O=C(OC1CN2CCC1CC2)C12CC3CC(CC(C3)C1)C2 (stereo not drawn),0.4%
22,O=P1(N(CCCl)CCCl)OCCCN1CCCl (stereo not drawn),0.9%
23,O=P1(N(CCCl)CCCl)Nc2ccccc2N1,1.5%
24,COc1cc(I)ccc1[As](=O)(O)O,0.4%
25,COc1ccc2nc(NP(=O)(c3ccccc3)c3ccccc3)sc2c1,0.4%
26,O=[N+]([O-])c1cc(Oc2ccc([N+](=O)[O-])cc2C(F)(F)F)cc([N+](=O)[O-])c1,1.6%

row,SMILES,GFP+ MAC1+ double positive
1,COc1ccccc1-c1ccccn1.O=[N+]([O-])c1cc([N+](=O)[O-])c(O)c([N+](=O)[O-])c1,1.5%
2,COc1ccc(N/C(=N/P(=O)(N2CCOCC2)N2CCOCC2)N2CCOCC2)cc1,0.4%
3,O=[N+]([O-])c1cc([N+](=O)[O-])c(Nc2cccnc2)c([N+](=O)[O-])c1,2.5%
4,O=[N+]([O-])c1ccc(-c2cc([N+](=O)[O-])c(O)c([N+](=O)[O-])c2)cc1,1.2%
5,COc1cc(C(=O)NCC2(N3CCOCC3)CCCCC2)ccc1OCC(C)C,0.2%
6,O=[As](O)(c1ccc(O)cc1)c1ccccc1O,0.2%
7,C[As](=O)(O)c1cccc(C(=O)O)c1,0.4%
8,Cc1cccc(C)c1OP(C)(N)=O (stereo not drawn),0.6%
9,[N-]=[N+]=NC1CCCCC1NC(=O)c1cc([N+](=O)[O-])cc([N+](=O)[O-])c1 (stereo not drawn),1.8%
10,Cc1ccc(OP(=O)(Nc2ccc([N+](=O)[O-])cn2)Oc2ccc(C)cc2)cc1,0.6%
11,CC(C)(C)c1ccc(OP(C)(=O)Nc2ccc(SC(F)(F)F)cc2)cc1 (stereo not drawn),0.5%
12,Cc1ccc2nc3c(c(C)c2c1)CC(C(Cl)Cl)S3 (stereo not drawn),0.5%
13,ClCCSc1nnc(-c2cccnc2)o1,0.5%
14,CCOC(=O)c1ccc(NP(C)(=O)Oc2ccccc2)cc1 (stereo not drawn),0.3%
15,COC(=O)C1(C)COP(=O)(N2CCCCCC2)OC1 (stereo not drawn),1.4%
16,Cc1ccc(NP(C)(=O)Oc2ccccc2)c(C)c1 (stereo not drawn),0.3%
17,CC(C)c1ccc(OP(=O)(Nc2ccccn2)Oc2ccccc2F)cc1 (stereo not drawn),0.5%
18,COc1ccccc1OP(C)(=O)Nc1ccc(C)cc1 (stereo not drawn),0.3%
19,COc1ccc(OP(C)(=O)Nc2cccc(F)c2)cc1 (stereo not drawn),0.7%
20,O=[N+]([O-])c1cc([N+](=O)[O-])c(-c2ccn[nH]2)s1,3.4%
21,CC(C)NC(=O)NP(=O)(Oc1ccccc1)Oc1ccccc1,0.4%
22,CCN(CC)C(=S)SC(NC=O)C(Cl)(Cl)Cl (stereo not drawn),0.8%
23,O=C(OC1CN2CCC1CC2)c1cccc2[nH]cnc12 (stereo not drawn),0.6%
24,Cc1cc(C)cc(OP(C)(N)=O)c1 (stereo not drawn),0.1%
25,O=C(O)C(=O)c1ccc(N(CCCl)CCCl)cc1.c1ccc(Nc2ccccc2)cc1,1.5%
